Experimental data as given in patent publication US7109176B2, “Nonsteroidal anti-inflammatory substances, compositions and methods for their use” (Pliva-Istrazivacki Institut D.o.o., priority 2002, dated 2006).
Some results were stated once for a whole list of compounds, not compound by compound.

Assay: Investigated in vitro and in vivo tests taken together (overall activity statement)
Settings: activity thresholds per test given

Structure (SMILES)	activity in the investigated tests
CC[C@H]1OC(=O)[C@H](C)[C@@H](O[C@H]2C[C@@](C)(OC)[C@@H](O)[C@H](C)O2)[C@H](C)[C@@H](O[C@@H]2O[C@H](C)C[C@H](N(C)C)[C@H]2O)[C@](C)(O)C[C@@H](C)CN(CCCNC(=O)Cc2c(C)n(C(=O)c3ccc(Cl)cc3)c3ccc(OC)cc23)[C@H](C)[C@@H](O)[C@]1(C)O [Ex. 4]	demonstrate activity in at least two investigated tests
CC[C@H]1OC(=O)[C@H](C)[C@@H](O)[C@H](C)[C@@H](O[C@@H]2O[C@H](C)C[C@H](N(C)C)[C@H]2O)[C@](C)(O)C[C@@H](C)CN(CCCNC(=O)Cc2c(C)n(C(=O)c3ccc(Cl)cc3)c3ccc(OC)cc23)[C@H](C)[C@@H](O)[C@]1(C)O [Ex. 10]	demonstrate activity in at least two investigated tests
CC[C@H]1OC(=O)[C@H](C)[C@@H](O[C@H]2C[C@@](C)(OC)[C@@H](O)[C@H](C)O2)[C@H](C)[C@@H](O[C@@H]2O[C@H](C)C[C@H](N(C)C)[C@H]2O)[C@](C)(O)C[C@@H](C)CN(CCCNC(=O)[C@@H](C)c2ccc(CC(C)C)cc2)[C@H](C)[C@@H](O)[C@]1(C)O [Ex. 5]	demonstrate activity in at least two investigated tests
